Record: PubChem BioAssay AID1259308 (NCATS, 2017)

Screen: 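Genes whose loss raises luciferase production in HEK293 cells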 (primary screen)
Cells: human HEK293 embryonic kidney cells stably expressing firefly luciferase (HEK-CMV-Luc2-Hygro)
Reagent: single siRNA against human genes, 0.8 pmol siRNA per well
Time to read-out: 72 h
Measured: 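Luciferase light (ONE-Glo) measured on one replicate plate set and viability (CellTiter-Glo) on the other, scaled to a negative control siRNA, with robust z-scores and luciferase per cell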
Scale: total luciferase, z-score and total luciferase, % of control: higher = more reporter protein produced
Hit rule: 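Active when the median/MAD z-score for overall luciferase is greater than 3; a gene was taken forward for validation with new siRNAs if at least two of its three siRNAs passed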
Calls: active = raised luciferase; inactive = no rise
The deposit covers about 59,000 reagents; below is a random part of them. About 1,510 of all reagents (2.6%) were called active. 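Calls use total luciferase alone and ignore viability, so some active siRNAs may act by altering cell number.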 Reagents against one gene are numbered here. Further read-outs or replicates are left out here.

no.	Gene	reagent	total luciferase, z-score	total luciferase, % of control	outcome
1	TK2 (GeneID 7084)	1	-0.0314	81.3	inactive
2	TK2 (GeneID 7084)	2	0.0638	83.2	inactive
3	TK2 (GeneID 7084)	3	-0.569	70.6	inactive
4	WNT1 (GeneID 7471)	1	-0.368	74.6	inactive
5	WNT1 (GeneID 7471)	2	-0.491	72.1	inactive
6	WNT1 (GeneID 7471)	3	0.941	101	inactive
7	TGOLN2 (GeneID 10618)	1	-2.21	37.9	inactive
8	TGOLN2 (GeneID 10618)	2	-2.15	39.1	inactive
9	TGOLN2 (GeneID 10618)	3	0.855	98.9	inactive
10	HOXA4 (GeneID 3201)	1	3.12	144	active
11	HOXA4 (GeneID 3201)	2	0.454	90.9	inactive
12	HOXA4 (GeneID 3201)	3	0.481	91.4	inactive
13	SLC38A12 (GeneID 54868)	1	-0.684	68.3	inactive
14	SLC38A12 (GeneID 54868)	2	0.677	95.3	inactive
15	SLC38A12 (GeneID 54868)	3	-0.776	66.5	inactive
16	MAMDC4 (GeneID 158056)	1	2.31	128	inactive
17	MAMDC4 (GeneID 158056)	2	0.522	92.3	inactive
18	MAMDC4 (GeneID 158056)	3	0.191	85.7	inactive
19	CPNE7 (GeneID 27132)	1	0.191	85.7	inactive
20	CPNE7 (GeneID 27132)	2	0.352	88.9	inactive
21	CPNE7 (GeneID 27132)	3	-2.05	41.1	inactive
22	ZSCAN21 (GeneID 7589)	1	-0.841	65.2	inactive
23	ZSCAN21 (GeneID 7589)	2	-0.3	75.9	inactive
24	ZSCAN21 (GeneID 7589)	3	0.747	96.7	inactive
25	BTBD18 (GeneID 643376)	1	0.346	88.8	inactive
26	BTBD18 (GeneID 643376)	2	2.95	141	inactive
27	BTBD18 (GeneID 643376)	3	-1.21	57.9	inactive
28	WASHC4 (GeneID 23325)	1	-1.79	46.3	inactive
29	WASHC4 (GeneID 23325)	2	0.492	91.7	inactive
30	WASHC4 (GeneID 23325)	3	1.05	103	inactive
31	KLK14 (GeneID 43847)	1	-0.108	79.7	inactive
32	KLK14 (GeneID 43847)	2	-0.208	77.7	inactive
33	KLK14 (GeneID 43847)	3	0.345	88.8	inactive
34	MYOM1 (GeneID 8736)	1	0.253	86.9	inactive
35	MYOM1 (GeneID 8736)	2	0.104	84	inactive
36	MYOM1 (GeneID 8736)	3	-0.751	67	inactive
37	LRRC8D (GeneID 55144)	1	-1.14	59.3	inactive
38	LRRC8D (GeneID 55144)	2	2.42	130	inactive
39	LRRC8D (GeneID 55144)	3	-0.386	74.2	inactive

Hits (from the list above):
Gene	reagent	total luciferase, z-score	total luciferase, % of control	outcome
HOXA4 (GeneID 3201)	1	3.12	144	active
